Reference: PMC13343979
Results are given in words; binding and its absence hold for the method and conditions named. Binding seen in cells or lysates may run through a third protein. Some results given as binding are weak or reduced against the parent protein; the word gives no strength. For part of these data: Tags and fused reporters may be left off the sequences shown.

T1: IRF7 (endogenous, primary BMDMs) (mouse (endogenous in BMDMs)) (UniProt P70434)
T1 sequence: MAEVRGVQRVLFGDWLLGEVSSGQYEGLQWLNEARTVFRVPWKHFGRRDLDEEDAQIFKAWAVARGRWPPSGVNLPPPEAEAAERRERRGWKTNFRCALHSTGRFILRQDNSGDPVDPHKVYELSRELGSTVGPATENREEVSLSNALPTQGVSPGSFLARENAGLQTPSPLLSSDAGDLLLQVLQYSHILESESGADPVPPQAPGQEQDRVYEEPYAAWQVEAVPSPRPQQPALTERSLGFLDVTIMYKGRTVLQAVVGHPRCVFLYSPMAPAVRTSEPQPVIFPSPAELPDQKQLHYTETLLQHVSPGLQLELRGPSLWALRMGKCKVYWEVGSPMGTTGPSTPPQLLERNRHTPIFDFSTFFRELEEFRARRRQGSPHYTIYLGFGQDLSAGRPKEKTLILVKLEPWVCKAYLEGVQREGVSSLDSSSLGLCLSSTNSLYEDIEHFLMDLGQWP

T2: V5-tagged IRF7 (IFN regulatory factor 7) (mouse) (UniProt P70434)
T2 sequence: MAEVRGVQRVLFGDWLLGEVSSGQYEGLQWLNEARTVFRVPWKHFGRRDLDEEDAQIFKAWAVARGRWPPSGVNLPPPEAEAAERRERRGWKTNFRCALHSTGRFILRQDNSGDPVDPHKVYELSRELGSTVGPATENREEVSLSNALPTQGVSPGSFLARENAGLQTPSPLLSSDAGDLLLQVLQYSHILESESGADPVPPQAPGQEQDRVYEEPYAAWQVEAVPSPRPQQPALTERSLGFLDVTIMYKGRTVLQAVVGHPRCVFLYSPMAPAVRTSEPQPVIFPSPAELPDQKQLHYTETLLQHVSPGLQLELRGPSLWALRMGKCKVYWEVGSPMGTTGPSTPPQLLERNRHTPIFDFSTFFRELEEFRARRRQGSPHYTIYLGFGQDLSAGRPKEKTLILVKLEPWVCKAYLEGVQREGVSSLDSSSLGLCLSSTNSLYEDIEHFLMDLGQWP

B1: USP2 (endogenous, primary BMDMs) (enzyme, UniProt O88623 1-619)
chain: MSQLSSTLKRYTESSRYTDAPYAKPGYGTYTPSSYGANLAASFLEKEKLGFKPVSPTSFLPRPRTYGPSSILDCDRGRPLLRSDIIGSSKRSESQTRGNERPSGSGLNGGSGFSYGVSSNSLSYLPMNARDQGVTLSQKKSNSQSDLARDFSSLRTSDGYRTSDGYRTSEGFRIDPGNLGRSPMLARTRKELCALQGLYQAASRSEYLTDYLENYGRKGSAPQVLTQAPPPSRVPEVLSPTYRPSGRYTLWEKSKGQASGPSRSSSPGRDTMNSKSAQGLAGLRNLGNTCFMNSILQCLSNTRELRDYCLQRLYMRDLGHTSSAHTALMEEFAKLIQTIWTSSPNDVVSPSEFKTQIQRYAPRFMGYNQQDAQEFLRFLLDGLHNEVNRVAARPKASPETLDHLPDEEKGRQMWRKYLEREDSRIGDLFVGQLKSSLTCTDCGYCSTVFDPFWDLSLPIAKRGYPEVTLMDCMRLFTKEDILDGDEKPTCCRCRARKRCIKKFSVQRFPKILVLHLKRFSESRIRTSKLTTFVNFPLRDLDLREFASENTNHAVYNLYAVSNHSGTTMGGHYTAYCRSPVTGEWHTFNDSSVTPMSSSQVRTSDAYLLFYELASPPSRM
B2: OTUD5 (endogenous, primary BMDMs) (enzyme, UniProt Q3U2S4 1-566)
chain: MTILPKKKPPPPDADPANEPPPPGPLPPAPRRGAGVGVGGGGTGVGGGERDRDSGVVGARPRASPPPQGPLPGPPGALHRWALAVPPGAVAGPRPQQASPPPCGGPGGPGGGPGDALGATTAGVGAAGVVVGVGGTVGVGGCCSGPGHSKRRRQAPGVGAVGGASPEREEVGAGYNSEDEYEAAAARIEAMDPATVEQQEHWFEKALRDKKGFIIKQMKEDGACLFRAVADQVYGDQDMHEVVRKHCMDYLMKNADYFSNYVTEDFTTYINRKRKNNCHGNHIEMQAMAEMYNRPVEVYQYSTEPINTFHGIHQNEDEPIRVSYHRNIHYNSVVNPNKATIGVGLGLPSFKPGFAEQSLMKNAIKTSEESWIEQQMLEDKKRATDWEATNEAIEEQVARESYLQWLRDQEKQARQVRGPSQPRKASATCSSATAAASSGLEEWTSRSPRQRSSASSPEHPELHAELGIKPPSPGTVLALAKPPSPCAPGTSSQFSAGGDRATSPLVSLYPALECRALIQQMSPSAFGLNDWDDDEILASVLAVSQQEYLDSMKKNKVHREPPPDKS
B3: OTUD5 (enzyme, UniProt Q96G74 1-571)
chain: MTILPKKKPPPPDADPANEPPPPGPMPPAPRRGGGVGVGGGGTGVGGGDRDRDSGVVGARPRASPPPQGPLPGPPGALHRWALAVPPGAVAGPRPQQASPPPCGGPGGPGGGPGDALGAAAAGVGAAGVVVGVGGAVGVGGCCSGPGHSKRRRQAPGVGAVGGGSPEREEVGAGYNSEDEYEAAAARIEAMDPATVEQQEHWFEKALRDKKGFIIKQMKEDGACLFRAVADQVYGDQDMHEVVRKHCMDYLMKNADYFSNYVTEDFTTYINRKRKNNCHGNHIEMQAMAEMYNRPVEVYQYSTGTSAVEPINTFHGIHQNEDEPIRVSYHRNIHYNSVVNPNKATIGVGLGLPSFKPGFAEQSLMKNAIKTSEESWIEQQMLEDKKRATDWEATNEAIEEQVARESYLQWLRDQEKQARQVRGPSQPRKASATCSSATAAASSGLEEWTSRSPRQRSSASSPEHPELHAELGMKPPSPGTVLALAKPPSPCAPGTSSQFSAGADRATSPLVSLYPALECRALIQQMSPSAFGLNDWDDDEILASVLAVSQQEYLDSMKKNKVHRDPPPDKS

Legend:
[1] = molecular target: T1, IRF7 (endogenous, primary BMDMs) (mouse (endogenous in BMDMs)); assay: proximity ligation; Duolink PLA in fixed, permeabilised wild-type primary BMDMs, mock or SeV-infected (8 hpi), with anti-IRF7 and anti-USP2 or anti-OTUD5 antibodies
[2] = molecular target: T2, V5-tagged IRF7 (IFN regulatory factor 7) (mouse); assay: co-IP; HEK-3KO.IRF7 cells transfected with polyI:C (pIC/LF) or infected with SeV for the indicated times; lysed in EPPS buffer; V5.IRF7 immunoprecipitated with V5-agarose beads overnight, washed with EPPS and RIPA buffers; immunoblot for endogenous USP2 and OTUD5

Binder | binding [1] | binding [2]
B1 | binds | –
B2 | binds | –
B3 | – | binds
